Key:
[1] = tested on: 6 Hz (32 mA) seizures, mice; test: Psychomotor 6 Hz (32 mA) seizure model; assay type: in vivo; conditions: i.p., TD50 rotarod / ED50 6 Hz (32 mA)
[2] = tested on: MES seizures, mice; test: Maximal electroshock (MES) seizure test; assay type: in vivo; conditions: i.p., TD50 rotarod / ED50 MES

Row | Compound | PI (TD50/ED50) (6 Hz) [1] | PI (TD50/ED50) (MES) [2]
1 | O=C(NCc1cccc(Cl)c1)C(c1ccccc1)N1C(=O)CCC1=O (stereo not shown) [Compound 19, N-(3-Chlorobenzyl)-2-(2,5-dioxopyrrolidin-1-yl)-2-phenylacetamide] | >3.3 (MES) >3.3 (6 Hz) | >3.3 (MES) >3.3 (6 Hz)
2 | O=C(NCCc1cccc(C(F)(F)F)c1)C(c1ccccc1)N1C(=O)CCC1=O (stereo not shown) [Compound 29, 2-(2,5-Dioxopyrrolidin-1-yl)-2-phenyl-N-(3-(trifluoromethyl)phenethyl)acetamide] | 3.6 | 3.2
3 | Nc1nnc(-c2cccc(Cl)c2Cl)c(N)n1 [LTG, lamotrigine, reference compound] | 7.5 | 15.6
4 | O=C(NCc1cccc(OC(F)(F)F)c1)C(c1ccccc1)N1C(=O)CCC1=O (stereo not shown) [Compound 24, 2-(2,5-Dioxopyrrolidin-1-yl)-2-phenyl-N-(3-(trifluoromethoxy)benzyl)acetamide] | >6.8 (6 Hz) | –
5 | O=C(NCCc1cccc(OC(F)(F)F)c1)C(c1ccccc1)N1C(=O)CCC1=O (stereo not shown) [Compound 30, 2-(2,5-Dioxopyrrolidin-1-yl)-2-phenyl-N-(3-(trifluoromethoxy)phenethyl)acetamide] | 4.1 | 3.5
6 | O=C(Nc1cccc(Cl)c1)C(c1ccccc1)N1C(=O)CCC1=O (stereo not shown) [Compound 8, N-(3-Chlorophenyl)-2-(2,5-dioxopyrrolidin-1-yl)-2-phenylacetamide] | – | >4.1 (MES)
7 | O=C(NCCc1ccc(Cl)cc1)C(c1ccccc1)N1C(=O)CCC1=O (stereo not shown) [Compound 28, N-(4-Chlorophenethyl)-2-(2,5-dioxopyrrolidin-1-yl)-2-phenylacetamide] | – | 2.3
8 | O=C(NCc1ccccc1C(F)(F)F)C(c1ccccc1)N1C(=O)CCC1=O (stereo not shown) [Compound 21, 2-(2,5-Dioxopyrrolidin-1-yl)-2-phenyl-N-(2-(trifluoromethyl)benzyl)acetamide] | >6.0 (6 Hz) | –
9 | O=C(Nc1ccccc1)C(c1ccccc1)N1C(=O)CCC1=O (stereo not shown) [Compound 3, 2-(2,5-Dioxopyrrolidin-1-yl)-N,2-diphenylacetamide] | >3.2 (6 Hz) | –
10 | O=C(Nc1ccc(F)cc1)C(c1ccccc1)N1C(=O)CCC1=O (stereo not shown) [Compound 6, 2-(2,5-Dioxopyrrolidin-1-yl)-N-(4-fluorophenyl)-2-phenylacetamide] | > 5.2 | > 2.5
11 | O=C(Nc1ccc(Cl)cc1)C(c1ccccc1)N1C(=O)CCC1=O (stereo not shown) [Compound 9, N-(4-Chlorophenyl)-2-(2,5-dioxopyrrolidin-1-yl)-2-phenylacetamide] | – | >2.8 (MES)
12 | CCCC(CCC)C(=O)O [VPA, valproic acid, reference compound] | 3.3 | 1.7
13 | O=C(NCc1cccc(C(F)(F)F)c1)C(c1ccccc1)N1C(=O)CCC1=O (stereo not shown) [Compound 22, 2-(2,5-Dioxopyrrolidin-1-yl)-2-phenyl-N-(3-(trifluoromethyl)benzyl)acetamide] | >5.2 (6 Hz) | –
14 | O=C(NCCc1ccccc1)C(c1ccccc1)N1C(=O)CCC1=O (stereo not shown) [Compound 25, 2-(2,5-Dioxopyrrolidin-1-yl)-N-phenethyl-2-phenylacetamide] | 2.4 (MES) 2.4 (6 Hz) | 2.4 (MES) 2.4 (6 Hz)
15 | O=C(Nc1ccccc1F)C(c1ccccc1)N1C(=O)CCC1=O (stereo not shown) [Compound 4, 2-(2,5-Dioxopyrrolidin-1-yl)-N-(2-fluorophenyl)-2-phenylacetamide] | – | >4.1 (MES)
16 | O=C(NCc1ccccc1)C(c1ccccc1)N1C(=O)CCC1=O (stereo not shown) [Compound 14, N-Benzyl-2-(2,5-dioxopyrrolidin-1-yl)-2-phenylacetamide] | >4.7 (6 Hz) | –
17 | COC[C@@H](NC(C)=O)C(=O)NCc1ccccc1 [LCS, lacosamide, reference compound] | 8.8 | 5.0
